Measurements: PMC12486400
No constants are given. Whether binding was seen depends on the method and setting. Binding seen in cells or lysates may run through a third protein. Some binding calls cover weakened binding; strength is not graded here. Sequences can lack the tags named with a protein.

Molecular target: T1, recombinant Kazald1-Fc protein (human) (UniProt Q96I82)
T1 sequence: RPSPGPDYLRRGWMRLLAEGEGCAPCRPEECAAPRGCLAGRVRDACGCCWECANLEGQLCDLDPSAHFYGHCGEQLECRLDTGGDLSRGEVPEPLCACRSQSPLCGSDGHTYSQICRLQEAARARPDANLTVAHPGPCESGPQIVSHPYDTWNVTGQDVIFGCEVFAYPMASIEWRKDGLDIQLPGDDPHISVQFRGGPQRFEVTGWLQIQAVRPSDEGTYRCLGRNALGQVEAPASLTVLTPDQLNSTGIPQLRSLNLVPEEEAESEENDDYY
Assay: pull-down; called Co-IP / immunoprecipitation by the paper: 1 μg Kazald1-Fc (or 1 μg Fc fragment) held on protein A/G magnetic beads overnight at 4 °C, washed with PBS 0.05% Tween-20; lysate of TGFBR1-transfected HEK-293T cells (about 1 mg total protein) added for 1 h at room temperature; blot with anti-TGFBR1; only the target purified

B1: TGFBR1 (NM_001130916.3), expressed from pcDNA3.1-TGFBR1 (receptor, UniProt P36897-3 34-426)
chain: LQCFCHLCTKDNFTCVTDGLCFVSVTETTDKVIHNSMCIAEIDLIPRDRPFVCAPSSKTGSVTTTYCCNQDHCNKIELPTTGLPLLVQRTIARTIVLQESIGKGRFGEVWRGKWRGEEVAVKIFSSREERSWFREAEIYQTVMLRHENILGFIAADNKDNGTWTQLWLVSDYHEHGSLFDYLNRYTVTVEGMIKLALSTASGLAHLHMEIVGTQGKPAIAHRDLKSKNILVKKNGTCCIADLGLAVRHDSATDTIDIAPNHRVGTKRYMAPEVLDDSINMKHFESFKRADIYAMGLVFWEIARRCSIGGIHEDYQLPYYDLVPSDPSVEEMRKVVCEQKLRPNIPNRWQSCEALRVMAKIMRECWYANGAARLTALRIKKTLSQLSQQEGIKM
With B1 the binding was “binds”.
